# Library screen at single concentrations

Chains of the proteins cited; added tags and fusions are not shown.
UniProt P9WFT3, whole entry: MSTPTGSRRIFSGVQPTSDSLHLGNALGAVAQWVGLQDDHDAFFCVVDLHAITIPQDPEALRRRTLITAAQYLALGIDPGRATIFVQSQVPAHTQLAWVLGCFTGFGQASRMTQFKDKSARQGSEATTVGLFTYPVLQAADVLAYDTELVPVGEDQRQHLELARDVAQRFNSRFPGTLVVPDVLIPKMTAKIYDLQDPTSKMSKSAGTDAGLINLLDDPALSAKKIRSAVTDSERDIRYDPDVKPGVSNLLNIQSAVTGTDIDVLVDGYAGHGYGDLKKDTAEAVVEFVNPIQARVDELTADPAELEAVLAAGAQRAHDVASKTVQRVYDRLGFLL

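Tryptophan-tRNA ligase, Mycobacterium tuberculosis (UniProt P9WFT3). Enzyme assay of tryptophanyl-tRNA synthetase; the read-out is not stated. Compounds at 10 µM. Higher most likely means stronger inhibition; the record gives no direction and few retests gave an IC50. Of about 65,000 compounds tested this way, about 64 (0.098%) reached 50% or more in at least one test.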

Values are the deposited “Percent Effect”, in %. The controls that fix the scale are not given in the record; negative values are as filed. This is an unselected part of the compounds tested.

| structure | effect |
|---|---|
| `COc1cccc(C(=O)Oc2cc(=O)n3cccc(C)c3n2)c1` | 3.204% |
| `CCOCc1cccc(NC(=O)C2COCCO2)c1` (stereo not drawn) | -2.502% |
| `Cc1ccn(-c2ccc(NCc3ccccc3F)nn2)n1` | 16.18% |
| `CCC1CN(Cc2nc(C(C)C)no2)CCC(=O)N1Cc1ccccc1` (stereo not drawn) | 1.407% |
| `Cc1cc(C)c(C#N)c(N2CCC(Cc3ccccc3)CC2)n1` | -4.811% |
| `Cc1ccc(C(=O)N2C[C@@H]3OCCN(C)[C@@H]3C2)cn1` | 3.753% |
| `CN(C)C(=O)COCc1nn(C)c2c1CCN(Cc1ccco1)C2` | -4.503% |
| `COc1ccc(S(=O)(=O)Cc2cc(C)on2)cc1` | 1.175% |
| `CC(C(=O)NCc1ccc(-n2cncn2)nc1)n1ccnc1` (stereo not drawn) | 1.798% |
| `COc1ccc(CNC2CCC(O)CC2)cc1OCCCC#N` (stereo not drawn) | 1.584% |
| `Cc1c(C(=O)N2CCCSCC2)nnn1-c1ccccc1Cl` | -1.634% |
| `COc1cccc(OCC2CCCN(C(C)=O)C2)c1` (stereo not drawn) | -12.92% |
| `CC(C)CN1CCCn2nc(CNC(=O)Cc3cccc(O)c3)cc2C1` | -2.434% |
| `CCN(Cc1cccc2c1OCCO2)C(=O)NC(C)(C)C` | 2.053% |
| `O=C1CN(c2ccc(CNC(=O)Nc3nccs3)cc2)CCN1` | 3.088% |
| `CN(Cc1cn2ccccc2n1)C1CCCN(c2cccnn2)C1` (stereo not drawn) | 3.155% |
| `Cc1cccc(CN(C(=O)NCc2ccccn2)C2CC2)c1` | -10.45% |
| `Cc1noc2nc(C3CCN(Cc4cccnc4)CC3)cc(C(F)F)c12` | 3.261% |
| `COCC(=O)N1Cc2cn(C)nc2C(COc2cccnc2)C1` (stereo not drawn) | 2.756% |
| `O=S(=O)(Cc1ccc(F)cc1)NCc1nnc2n1CCC2` | 0.2045% |
| `Cc1cc(C)n(C2CCCN(C(=O)c3cn4cccnc4n3)C2)n1` (stereo not drawn) | 0.3313% |
| `Cc1ccc(C(=O)N(CC(=O)O)CC(C)C)cc1F` | -3.537% |
| `O=C(c1ccc2c(c1)COC2)N1CCN(CCO)CC1` | 2.98% |
| `CN1CCN(Cc2cccnc2)C(=O)C12CCN(CC1CCOC1)CC2` (stereo not drawn) | -8.585% |
| `Cc1nnc(CN(C)CCCOc2ccc(Cl)cc2)o1` | -4.237% |
| `Cc1ccc(C(=O)N2CCC(n3cc(CN)nn3)CC2)cc1F` | 3.276% |
| `CC1(C)CC(=O)c2cnc3nc(N4CCCC4)[nH]c(=O)c3c2C1` | -2.925% |
| `CCc1cnc(N2CC[C@@H]3CN(CCC(C)C)S(=O)(=O)[C@@H]3CC2)nc1` | -4.926% |
| `O=C([C@@H]1Cc2[nH]cnc2CN1CC1CC1)N1CCCC1` | 5.045% |
| `CN(C)CCOCC1CN(C(=O)c2cscn2)Cc2ccnn2C1` (stereo not drawn) | 1.465% |
| `CNC(=O)c1cccc(CNC(=O)C2CC(=O)N(CCN(C)C)C2)c1` (stereo not drawn) | 4.085% |
| `Cn1ncc2c(=O)[nH]c(CN3CCCC3Cc3ccccc3)nc21` (stereo not drawn) | -0.4873% |
| `CCC(CC)(CNC(=O)c1cccn1Cc1cccnc1)N(C)C` | -7.173% |
| `COc1ccccc1-c1nc(C(=O)N(C)C)n2ccncc12` | -2.506% |
| `Cc1cccc(C(=O)N(CCCO)S(=O)(=O)c2cccs2)c1` | -1.679% |
| `CN(C)S(=O)(=O)N1CCN(c2cc(-n3cccc3)ncn2)CC1` | -2.25% |
| `COCC1c2c(cnn2CC2CC2)CCN1Cc1cc(C)on1` (stereo not drawn) | -4.699% |
| `CC(Nc1cccc(CN2CCOC2=O)c1)C(=O)N1CCNC1=O` (stereo not drawn) | -3.192% |
| `CN(C)CC(=O)N1CC2(CCN(Cc3ccccc3)C2)C1` | 10.61% |
| `Cc1nc(C)n(CC(C)C(=O)N2CCC(CN3CCOCC3)CC2)n1` (stereo not drawn) | -1.102% |
| `O=C(NCCn1ccnc1)C1COCC(=O)N1Cc1ccccc1` (stereo not drawn) | -3.53% |
| `CCN(c1ccsc1C(=O)N1CCSCC1)S(=O)(=O)c1ccc(Cl)cc1` | -0.1485% |
| `Cc1ccc(C(=O)NS(=O)(=O)Cc2ccc(F)cc2)cc1S(C)(=O)=O` | -1.098% |
| `CC(=O)NC(C(=O)N1CCn2cncc2C1)C(C)C` (stereo not drawn) | -3.979% |
| `COc1ncccc1C(=O)NCC(C)Oc1cccnc1` (stereo not drawn) | -3.019% |
| `Cc1nc(CN(C)CC(c2cccs2)N2CCOCC2)no1` (stereo not drawn) | -10.8% |
| `O=C1NC(c2ccccc2)=N[C@@]12CC[C@@H]1CN(Cc3ccccc3)C[C@@H]12` | -1.994% |
| `CC(C)CN1CC(C(=O)NCCc2ccc(OC(F)F)cc2)CC1=O` (stereo not drawn) | 9.855% |
| `Cc1cnn(CCNCC(O)COc2ccc(C#N)cc2)c1` (stereo not drawn) | 5.114% |
| `CN(C)C(=O)COC1COC2(CCN(c3cccc(F)c3)CC2)C1` (stereo not drawn) | 1.728% |
| `Nc1ccnc(CNc2cc(F)ccc2OCC2CCCO2)n1` (stereo not drawn) | 0.6173% |
| `CC(C)c1nc(Cn2cncn2)n(-c2ccccn2)n1` | -0.4724% |
| `NC(=O)NC(=O)CCn1ccc(-c2ccc(F)cc2)n1` | 2.933% |
| `O=C(Nc1cccc(CN2CCOC2=O)c1)N1CCCC1` | 2.673% |
| `COc1ccc(N2CCN(C(=O)COc3nccc(C)n3)CC2)cc1` | 6.31% |
| `COc1ccc2c(c1)OCC(CNC(=O)c1cc[nH]c1C)C2` (stereo not drawn) | 5.439% |
| `O=C1CN(C(=O)C2CCOCC2)CCN1Cc1ccc(Cl)cc1` | -2% |
| `Cc1ccc(N2CCCC(NCc3ccc4c(c3)CCO4)C2)nn1` (stereo not drawn) | -2.542% |
| `CN(C)[C@H]1C[C@@H](Cc2cc(CO)on2)C1(C)C` | -1.449% |
| `COc1cccc(CN2CCC3(COCc4cnc(N(C)C)nc43)C2)c1` (stereo not drawn) | 2.822% |
| `OC1(CNc2ccc(Br)cn2)CCC1` | 6.647% |
| `CC1c2ncc(COCC3CC3)n2CCN1C(=O)c1ccnnc1` (stereo not drawn) | 0.1744% |
| `CCCc1nnc(SCc2cc(=O)n3c4c(sc3n2)CCCC4)[nH]1` | 2.177% |
| `O=C(NCCC(=O)N1CCCCCC1)c1c(O)cc(F)cc1F` | -1.642% |
| `CN(C)c1ccnc(-c2ccnc3c2ccn3C)n1` | 0.301% |
| `c1cc(CNCC2CNc3ccnn3C2)cc(OC2CCCC2)n1` (stereo not drawn) | -1.656% |
| `C=C(C)CN1CCN(Cc2nccn2C)C(C)C1` (stereo not drawn) | 29.9% |
| `c1csc(N2CCN(Cc3nnnn3C3CC3)CC2)n1` | 11.14% |
| `CCc1cc(CN(C)C(=O)c2cnc3c(c2)nc(N)n3CC)on1` | 0.2987% |
| `COCCN1CCN(CCS(C)(=O)=O)CC1C` (stereo not drawn) | 4.191% |
| `CN(C)C(=O)COC[C@]12COC[C@H]1CN(CCc1ccccc1)C2` | -7.895% |
| `CCOc1ccc(NC2CCN(C)C2=O)cn1` (stereo not drawn) | 2.342% |
| `Cc1ccc(OCCNC(=O)C(C)n2cncn2)cc1` (stereo not drawn) | -3.698% |
| `CN(C)C(=O)c1ccc(C2CCCNC2)nc1` (stereo not drawn) | -4.235% |
| `CS(=O)(=O)N1CCC(n2nnn(-c3ccccc3)c2=O)CC1` | -2.734% |
| `COc1ccc(CNC(=O)N2CCCC(Nc3ccccc3)C2)cn1` (stereo not drawn) | 1.817% |
| `Cc1nnc(CSc2ccccn2)o1` | -5.982% |
| `CCOC(=O)NCCNC(=O)c1cc2ccccc2nc1N1CCCC1` | -1.33% |
| `Cc1cc(F)ccc1N1CCCC(Nc2nccn3cnnc23)C1=O` (stereo not drawn) | 0.4454% |
| `Cc1ccc(C(=O)N2[C@@H]3CC[C@H]2CN(C)C(=O)C3)c(=O)[nH]1` | -1.224% |
| `O=C(NCCSCc1ccc(Br)s1)C1CCCN(C(=O)c2cccs2)C1` (stereo not drawn) | -5.455% |
| `O=C(CN1CCCS1(=O)=O)Nc1ccc(OC(F)F)cc1` | -1.729% |
| `Cc1nc(C)c(CC(=O)N2C[C@H]3CC[C@@H]2CN(C(=O)N(C)C)C3)c(=O)[nH]1` | -4.526% |
| `CC(NC(=O)Cn1cccnc1=O)c1ccc(C(F)(F)F)cc1` (stereo not drawn) | 3.979% |
| `CCN(CC)C(CNS(=O)(=O)NCc1ccccc1)c1ccco1` (stereo not drawn) | 3.122% |
| `Cc1cc(CN2CCC(c3nccn3C(C)C)CC2)ccc1F` | -4.196% |
| `Cc1ccc(C(C)N(C)CCS(=O)(=O)CCC(N)=O)cc1` (stereo not drawn) | -5.098% |
| `CCCNC(=O)C1CCN(Cc2csc(CC)n2)CC1` | 2.98% |
| `O=C(NCCSC1CCCC1)c1cnccn1` | -7.648% |
| `CCOCC(O)CN1CCN(C(=O)c2ccnc(N(C)C)c2)CC1` (stereo not drawn) | -3.328% |
| `COc1cc(NCc2c(C)noc2C)c(C(=O)N(C)C)cc1OC` | -4.231% |
| `O=C(CN1CCCC(c2ccn[nH]2)C1)Nc1nc2c(s1)CCCC2` (stereo not drawn) | -1.397% |
| `O=C(COC1CCCCC1)Nc1ccn(Cc2ccccn2)n1` | -6.781% |

9 of the entries, repeated:

{"structure": "CN(C)CCOCC1CN(C(=O)c2cscn2)Cc2ccnn2C1", "stereo": "stereo not drawn", "effect": 1.465}
{"structure": "Cc1cc(C)c(C#N)c(N2CCC(Cc3ccccc3)CC2)n1", "effect": -4.811}
{"structure": "COc1ccccc1-c1nc(C(=O)N(C)C)n2ccncc12", "effect": -2.506}
{"structure": "CC(NC(=O)Cn1cccnc1=O)c1ccc(C(F)(F)F)cc1", "stereo": "stereo not drawn", "effect": 3.979}
{"structure": "Cc1nc(C)c(CC(=O)N2C[C@H]3CC[C@@H]2CN(C(=O)N(C)C)C3)c(=O)[nH]1", "effect": -4.526}
{"structure": "CCN(c1ccsc1C(=O)N1CCSCC1)S(=O)(=O)c1ccc(Cl)cc1", "effect": -0.1485}
{"structure": "O=C1NC(c2ccccc2)=N[C@@]12CC[C@@H]1CN(Cc3ccccc3)C[C@@H]12", "effect": -1.994}
{"structure": "COc1ncccc1C(=O)NCC(C)Oc1cccnc1", "stereo": "stereo not drawn", "effect": -3.019}
{"structure": "CN1CCN(Cc2cccnc2)C(=O)C12CCN(CC1CCOC1)CC2", "stereo": "stereo not drawn", "effect": -8.585}

The values are deposited in ChEMBL (CHEMBL3988442, “University of Dundee, Small-Polar-MMV Screening Library” (2021)).